# Primary screen of a compound library

By UniProt entry, the sequences of proteins in these tests, tags left out. Residues count along the entry.
UniProt Q8IDJ8, 1-583: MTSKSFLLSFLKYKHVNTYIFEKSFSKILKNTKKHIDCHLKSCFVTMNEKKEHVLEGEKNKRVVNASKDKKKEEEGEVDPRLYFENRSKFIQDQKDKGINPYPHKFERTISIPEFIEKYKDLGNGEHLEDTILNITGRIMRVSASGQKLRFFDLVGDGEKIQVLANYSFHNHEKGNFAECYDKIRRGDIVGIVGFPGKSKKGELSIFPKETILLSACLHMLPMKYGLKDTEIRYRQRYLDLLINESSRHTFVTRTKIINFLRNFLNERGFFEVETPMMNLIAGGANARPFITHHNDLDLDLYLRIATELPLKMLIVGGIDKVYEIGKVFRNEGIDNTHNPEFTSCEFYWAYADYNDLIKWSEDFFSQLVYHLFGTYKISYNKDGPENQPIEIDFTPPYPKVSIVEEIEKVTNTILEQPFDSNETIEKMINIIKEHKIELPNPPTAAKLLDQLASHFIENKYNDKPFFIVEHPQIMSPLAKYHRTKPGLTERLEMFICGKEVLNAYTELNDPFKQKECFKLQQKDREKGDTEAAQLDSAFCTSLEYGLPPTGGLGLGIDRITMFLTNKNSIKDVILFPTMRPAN
UniProt I6X8D2, whole entry: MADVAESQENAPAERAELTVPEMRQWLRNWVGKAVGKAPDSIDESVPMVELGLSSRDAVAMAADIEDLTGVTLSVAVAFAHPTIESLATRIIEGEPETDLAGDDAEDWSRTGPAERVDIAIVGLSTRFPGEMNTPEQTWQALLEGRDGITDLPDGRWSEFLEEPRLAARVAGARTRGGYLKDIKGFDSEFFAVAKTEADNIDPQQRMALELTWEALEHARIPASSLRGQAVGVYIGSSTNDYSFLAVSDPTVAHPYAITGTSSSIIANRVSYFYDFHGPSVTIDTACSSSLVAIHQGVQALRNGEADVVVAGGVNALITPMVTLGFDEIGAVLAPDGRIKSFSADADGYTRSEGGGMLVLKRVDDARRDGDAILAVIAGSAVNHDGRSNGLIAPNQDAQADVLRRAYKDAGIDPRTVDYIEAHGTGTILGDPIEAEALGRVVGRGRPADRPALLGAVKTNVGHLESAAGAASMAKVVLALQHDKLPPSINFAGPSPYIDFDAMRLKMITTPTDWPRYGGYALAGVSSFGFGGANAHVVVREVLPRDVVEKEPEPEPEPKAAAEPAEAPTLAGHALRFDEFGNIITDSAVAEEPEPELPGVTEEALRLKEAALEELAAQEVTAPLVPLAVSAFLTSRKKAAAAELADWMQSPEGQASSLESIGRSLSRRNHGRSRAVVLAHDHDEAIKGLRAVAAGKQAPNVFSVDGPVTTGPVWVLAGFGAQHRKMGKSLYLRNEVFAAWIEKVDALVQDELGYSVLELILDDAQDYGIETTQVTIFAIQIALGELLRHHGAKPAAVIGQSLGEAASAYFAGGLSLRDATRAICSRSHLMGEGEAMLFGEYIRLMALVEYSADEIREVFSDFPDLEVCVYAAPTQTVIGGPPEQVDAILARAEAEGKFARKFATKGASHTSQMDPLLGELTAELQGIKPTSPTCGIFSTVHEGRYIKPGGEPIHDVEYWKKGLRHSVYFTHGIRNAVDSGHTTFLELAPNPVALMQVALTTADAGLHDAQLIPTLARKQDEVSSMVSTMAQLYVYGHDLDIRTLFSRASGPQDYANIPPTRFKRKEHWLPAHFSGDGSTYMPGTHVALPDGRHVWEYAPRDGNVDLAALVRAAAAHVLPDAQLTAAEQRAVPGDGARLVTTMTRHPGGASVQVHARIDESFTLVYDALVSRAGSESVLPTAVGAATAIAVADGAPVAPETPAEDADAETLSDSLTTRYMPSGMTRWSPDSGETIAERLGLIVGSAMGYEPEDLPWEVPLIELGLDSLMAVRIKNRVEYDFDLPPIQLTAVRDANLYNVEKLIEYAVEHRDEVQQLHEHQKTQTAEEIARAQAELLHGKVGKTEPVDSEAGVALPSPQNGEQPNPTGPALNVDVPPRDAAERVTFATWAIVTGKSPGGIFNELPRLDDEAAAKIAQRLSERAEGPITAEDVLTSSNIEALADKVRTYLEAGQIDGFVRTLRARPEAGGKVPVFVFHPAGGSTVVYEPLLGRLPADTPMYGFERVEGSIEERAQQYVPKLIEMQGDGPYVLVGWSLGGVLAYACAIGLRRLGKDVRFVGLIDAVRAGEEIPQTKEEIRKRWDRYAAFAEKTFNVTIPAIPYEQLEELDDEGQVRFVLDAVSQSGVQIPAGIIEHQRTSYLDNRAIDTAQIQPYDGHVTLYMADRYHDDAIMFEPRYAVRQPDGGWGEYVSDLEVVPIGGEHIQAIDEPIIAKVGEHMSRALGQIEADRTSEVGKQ
UniProt P9WFT3, whole entry: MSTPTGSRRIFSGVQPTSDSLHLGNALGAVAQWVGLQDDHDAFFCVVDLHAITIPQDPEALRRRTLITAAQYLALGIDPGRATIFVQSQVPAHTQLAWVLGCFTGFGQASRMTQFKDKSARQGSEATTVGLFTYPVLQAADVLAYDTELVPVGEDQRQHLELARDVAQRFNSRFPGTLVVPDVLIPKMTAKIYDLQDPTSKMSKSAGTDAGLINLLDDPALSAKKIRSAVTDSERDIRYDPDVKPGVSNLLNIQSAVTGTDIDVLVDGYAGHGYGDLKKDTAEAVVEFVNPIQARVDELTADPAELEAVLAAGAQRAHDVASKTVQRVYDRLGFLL
UniProt Q4DA54, 1-478: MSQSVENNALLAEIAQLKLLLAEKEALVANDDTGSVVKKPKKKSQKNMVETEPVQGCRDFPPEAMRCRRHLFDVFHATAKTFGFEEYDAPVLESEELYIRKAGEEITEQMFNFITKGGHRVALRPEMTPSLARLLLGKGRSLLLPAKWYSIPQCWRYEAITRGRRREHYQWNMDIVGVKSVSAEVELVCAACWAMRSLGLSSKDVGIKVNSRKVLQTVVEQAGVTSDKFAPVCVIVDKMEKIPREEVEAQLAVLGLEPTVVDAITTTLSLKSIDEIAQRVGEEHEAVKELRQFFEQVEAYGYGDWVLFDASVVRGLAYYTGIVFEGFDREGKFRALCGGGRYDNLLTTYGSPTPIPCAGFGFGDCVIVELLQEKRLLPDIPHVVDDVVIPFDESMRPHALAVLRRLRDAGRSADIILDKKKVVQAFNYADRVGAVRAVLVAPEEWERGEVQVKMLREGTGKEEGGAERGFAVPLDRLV

Measurements from “University of Dundee, Small-Polar-MMV Screening Library” (2021), ChEMBL document CHEMBL3988442.

PfKRS1: 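Lysine-tRNA ligase, Plasmodium falciparum 3D7 (UniProt Q8IDJ8). Enzyme assay of the cytosolic lysyl-tRNA synthetase in 384-well plates, read by luminescence. Compounds at 30 µM. Direction is inferred from only a few compounds that gave an IC50; most scored high, so higher reads as stronger inhibition. Size under these conditions: about 69,000 compounds, about 49 of them at 50% or above in at least one test.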
Pks13 thioesterase: 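Polyketide synthase Pks13, Mycobacterium tuberculosis (UniProt I6X8D2). Enzyme assay of the thioesterase domain of polyketide synthase 13; the read-out is not stated. Tested at 30 µM. Higher reads as stronger inhibition (inferred from which compounds were picked for retests). Of about 67,000 compounds tested this way, about 300 (0.46%) reached 50% or more in at least one test.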
MtTrpRS: 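Tryptophan-tRNA ligase, Mycobacterium tuberculosis (UniProt P9WFT3). Enzyme assay of tryptophanyl-tRNA synthetase; the read-out is not stated. Concentration: 10 µM. Direction is not recorded; retested compounds ran higher, which suggests that high means inhibition. Size under these conditions: about 65,000 compounds, about 64 of them at 50% or above in at least one test.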
TcHisRS: 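Histidine-tRNA ligase, Trypanosoma cruzi CL Brener (UniProt Q4DA54). Enzyme assay of histidyl-tRNA synthetase; the read-out is not stated. Concentration: 30 µM. Higher reads as stronger inhibition (inferred: compounds with an IC50 in retests scored well above the rest). About 69,000 compounds were tested under these conditions; 0.045% (about 31) showed 50% or more at least once.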

Values are the deposited “Percent Effect”, in %. The controls that fix the scale are not given in the record; negative values are as filed. The compounds are a random part of those screened.

With Cc1nc(-c2nc(C(=O)NC3CC3)c3ccccn23)cn1C(C)C the screen gave PfKRS1: 1.536%; Pks13 thioesterase: 10.22%; TcHisRS: -2.513%. CS(=O)(=O)NC[C@@H]1OC[C@H]2CN(C(=O)c3ccccc3)CC[C@H]21 gave PfKRS1: 4.34%; Pks13 thioesterase: -21.09%; MtTrpRS: -2.604%; TcHisRS: 5.882%. With CN(C)S(=O)(=O)NCc1cccnc1Oc1ccccc1F the screen gave PfKRS1: 1.253%; Pks13 thioesterase: -33.16%; MtTrpRS: -0.3018%; TcHisRS: 5.759%. Cc1cc(C)n(CC2CCCCN2CC(=O)Nc2ccncc2)n1 (stereo not shown) read PfKRS1: 2.224%; Pks13 thioesterase: -7.15%; MtTrpRS: 1.251%; TcHisRS: 6.122%. With CCO[C@@H]1CO[C@@]2(CCCN(S(=O)(=O)c3cccnc3)C2)C1 the screen gave PfKRS1: 3.301%; Pks13 thioesterase: -7.622%; MtTrpRS: 1.055%; TcHisRS: 1.639%. With Cc1ccnc(C2CCN(c3ccnc(C)n3)C2)n1 (stereo not shown) the screen gave PfKRS1: 0.6972%; Pks13 thioesterase: -5.835%; MtTrpRS: -7.326%; TcHisRS: 8.333%.

COC(=O)N1CCCN(C(=O)NCc2ccc(Cl)s2)CC1 read PfKRS1: 3.799%; Pks13 thioesterase: -11.55%; MtTrpRS: 0.4873%; TcHisRS: 4.135%. For CCCNC(=O)C1CCN(Cc2csc(C(C)(C)C)n2)CC1 the result was PfKRS1: 6.957%; Pks13 thioesterase: -23.07%; MtTrpRS: 1.18%; TcHisRS: 5.263%. CC(C)CCN1CCc2nc(N3CCOCC3)nc(NC(C)C)c2C1 gave PfKRS1: -0.9762%; Pks13 thioesterase: -1.406%; MtTrpRS: -5.534%; TcHisRS: 24.49%. Result for Cc1ccsc1[C@@H]1CCN(C(=O)CCC(=O)c2ccccc2)C[C@H]1O was PfKRS1: 4.418%; Pks13 thioesterase: -43.19%; MtTrpRS: -1.205%; TcHisRS: 2.97%. CC(C)(C)c1nc(CN2CCC(c3nc4cc(Cl)ccc4o3)CC2)no1 gave PfKRS1: 1.48%; Pks13 thioesterase: -14.98%; MtTrpRS: 1.471%; TcHisRS: -5%. Nc1cc2c(nn1)CCN(C(=O)CCCC1CCCCC1)C2 read PfKRS1: 2.999%; Pks13 thioesterase: -5.182%; MtTrpRS: -9.054%; TcHisRS: 12.57%.

For Cc1nc(CN2CCC3(CC2)NC(=O)CC3c2ccccc2)cs1 (stereo not shown) the result was PfKRS1: 4.24%; Pks13 thioesterase: -14.08%; MtTrpRS: 1.603%; TcHisRS: 5.263%. Cc1n[nH]c(C2CN(C(=O)c3cc(Cl)c[nH]3)CCO2)n1 (stereo not shown) read PfKRS1: 6.257%; Pks13 thioesterase: -25.22%; MtTrpRS: 2.86%; TcHisRS: 5.435%. COc1ccc(N)c(N2CCN(C(C)=O)CC2)n1 read PfKRS1: 20.02%; Pks13 thioesterase: 10.47%; MtTrpRS: 1.906%; TcHisRS: 34.48%. Cc1cc(C(F)(F)F)nc(CCNc2nc(C)nc3sccc23)n1 gave PfKRS1: -1.845%; Pks13 thioesterase: -9.086%; MtTrpRS: -4.67%; TcHisRS: -15.2%. For Cn1nc(C2CCCN2)c2c(C(=O)NCC(F)(F)F)cc(C3CC3)nc21 (stereo not shown) the result was PfKRS1: -1.541%; Pks13 thioesterase: 118.9%; MtTrpRS: 16.68%; TcHisRS: 0.5917%. CCN(CC)C(=O)CSc1sc2c(O)cc(=O)[nH]c2c1C(N)=O gave PfKRS1: -0.4249%; Pks13 thioesterase: 1.201%; MtTrpRS: 0.8136%; TcHisRS: 1.242%.

With CCCN(CCc1ccccn1)C(=O)Cn1cnnn1 the screen gave PfKRS1: 1.342%; Pks13 thioesterase: -11.88%; MtTrpRS: 5.662%; TcHisRS: 5.473%. CC(C)CCCC(C)NC(=O)c1ccc(OCC(N)=O)cc1 (stereo not shown) read PfKRS1: 8.077%; Pks13 thioesterase: -26.94%; MtTrpRS: -2.734%; TcHisRS: 4.926%. For CN1CC(C(=O)N(C)Cc2cc(-c3cccnc3)no2)NC1=O (stereo not shown) the result was PfKRS1: 0.5715%; Pks13 thioesterase: -44.75%; MtTrpRS: -1.858%; TcHisRS: 5.263%. For Cc1cc(C(=O)N2CCCC2)ccc1NCc1nc(CC(C)C)no1 the result was PfKRS1: -0.02021%; Pks13 thioesterase: -8.846%; MtTrpRS: -5.453%; TcHisRS: 4.023%.

The last 3 entries again:

CC(C)CCCC(C)NC(=O)c1ccc(OCC(N)=O)cc1 (stereo not shown) gave PfKRS1: 8.077%; Pks13 thioesterase: -26.94%; MtTrpRS: -2.734%; TcHisRS: 4.926%.
CN1CC(C(=O)N(C)Cc2cc(-c3cccnc3)no2)NC1=O (stereo not shown) gave PfKRS1: 0.5715%; Pks13 thioesterase: -44.75%; MtTrpRS: -1.858%; TcHisRS: 5.263%.
Cc1cc(C(=O)N2CCCC2)ccc1NCc1nc(CC(C)C)no1 gave PfKRS1: -0.02021%; Pks13 thioesterase: -8.846%; MtTrpRS: -5.453%; TcHisRS: 4.023%.